{"source": "patent EP4703361A1", "about": "“PYRIDAZINONE TRPC4/5 INHIBITOR AND USE THEREOF” (Shanghai Institute of Materia Medica, Chinese Academy of …, priority 2023, dated 2024)", "system": "BDL mice", "assay": "Bile duct ligation (BDL) mouse model of liver fibrosis", "format": "in vivo", "conditions": "2.5 mg/kg twice a day oral gavage", "note": "At least one structure is not confirmed: it was looked up by name or label, or the drawing left a doubt."}
{"smiles": "COC(c1ccc(F)cc1Cl)c1cnc2n1CCN(c1cn[nH]c(=O)c1Cl)C2", "note": "(racemic) [Example E21, 4-chloro-5-(3-((2-chloro-4-fluorophenyl)(methoxy)methyl)-5,6-dihydroimidazo[1,2-a]pyrazin-7(8H)-yl)pyridazin-3(2H)-one]", "values": [{"measurement": "serum ALT levels", "setting": "Figure 5", "value": "significantly reduces"}, {"measurement": "serum AST levels", "setting": "Figure 5", "value": "significantly reduces"}, {"measurement": "collagen deposition, inflammatory cell aggregation and bridging necrosis in the liver sections (HE staining)", "setting": "Figure 6", "value": "significantly reduced"}, {"measurement": "collagen-positive area (Masson staining)", "setting": "Figure 7", "value": "significantly reduce"}, {"measurement": "collagen positive area (Sirius red staining)", "setting": "Figure 8", "value": "significantly reduce"}, {"measurement": "mRNA level of ACTA2 in liver tissue", "setting": "Figure 9", "value": "significantly reduce"}, {"measurement": "mRNA level of COL1a1 in liver tissue", "setting": "Figure 9", "value": "significantly reduce"}, {"measurement": "mRNA level of PDGFR in liver tissue", "setting": "Figure 9", "value": "significantly reduce"}, {"measurement": "mRNA level of TIMP-1 in liver tissue", "setting": "Figure 9", "value": "significantly reduce"}]}
